Reference: PMC4657044, “Live detection and purification of cells based on the expression of a histone chaperone, HIRA, using a binding peptide” (Scientific Reports, 2015)
These are yes or no findings as the source states them, for the method shown. Some binding calls cover weakened binding; strength is not graded here. For some of these results: Tags and fused reporters may be left off the sequences shown.

Amino acid sequences for entries named in this document (tags omitted).
UniProt P54198: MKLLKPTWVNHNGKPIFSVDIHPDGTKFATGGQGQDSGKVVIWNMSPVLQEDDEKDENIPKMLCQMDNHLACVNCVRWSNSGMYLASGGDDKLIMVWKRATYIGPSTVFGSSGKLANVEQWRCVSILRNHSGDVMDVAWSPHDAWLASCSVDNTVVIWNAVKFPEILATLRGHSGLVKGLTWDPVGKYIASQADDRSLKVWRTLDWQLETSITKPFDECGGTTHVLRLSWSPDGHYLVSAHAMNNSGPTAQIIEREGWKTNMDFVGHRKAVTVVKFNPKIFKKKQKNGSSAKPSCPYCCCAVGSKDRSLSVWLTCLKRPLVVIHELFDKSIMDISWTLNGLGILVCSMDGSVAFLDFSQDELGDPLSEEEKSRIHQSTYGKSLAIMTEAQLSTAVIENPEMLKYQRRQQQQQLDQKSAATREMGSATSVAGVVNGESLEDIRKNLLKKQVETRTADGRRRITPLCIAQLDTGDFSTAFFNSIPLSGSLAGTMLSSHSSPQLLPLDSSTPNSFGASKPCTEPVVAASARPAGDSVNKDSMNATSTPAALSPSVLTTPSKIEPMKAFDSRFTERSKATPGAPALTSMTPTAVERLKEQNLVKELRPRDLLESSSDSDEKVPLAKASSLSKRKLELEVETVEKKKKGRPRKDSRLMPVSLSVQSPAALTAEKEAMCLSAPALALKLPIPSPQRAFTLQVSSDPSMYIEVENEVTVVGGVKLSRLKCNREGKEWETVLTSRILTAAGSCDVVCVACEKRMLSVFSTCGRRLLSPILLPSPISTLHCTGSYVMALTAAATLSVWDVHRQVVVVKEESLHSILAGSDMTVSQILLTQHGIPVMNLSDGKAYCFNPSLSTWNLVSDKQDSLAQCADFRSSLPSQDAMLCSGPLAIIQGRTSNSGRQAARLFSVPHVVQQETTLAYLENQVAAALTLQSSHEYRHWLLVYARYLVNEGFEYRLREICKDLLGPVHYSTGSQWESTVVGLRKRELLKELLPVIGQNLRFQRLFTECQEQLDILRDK
UniProt Q61666: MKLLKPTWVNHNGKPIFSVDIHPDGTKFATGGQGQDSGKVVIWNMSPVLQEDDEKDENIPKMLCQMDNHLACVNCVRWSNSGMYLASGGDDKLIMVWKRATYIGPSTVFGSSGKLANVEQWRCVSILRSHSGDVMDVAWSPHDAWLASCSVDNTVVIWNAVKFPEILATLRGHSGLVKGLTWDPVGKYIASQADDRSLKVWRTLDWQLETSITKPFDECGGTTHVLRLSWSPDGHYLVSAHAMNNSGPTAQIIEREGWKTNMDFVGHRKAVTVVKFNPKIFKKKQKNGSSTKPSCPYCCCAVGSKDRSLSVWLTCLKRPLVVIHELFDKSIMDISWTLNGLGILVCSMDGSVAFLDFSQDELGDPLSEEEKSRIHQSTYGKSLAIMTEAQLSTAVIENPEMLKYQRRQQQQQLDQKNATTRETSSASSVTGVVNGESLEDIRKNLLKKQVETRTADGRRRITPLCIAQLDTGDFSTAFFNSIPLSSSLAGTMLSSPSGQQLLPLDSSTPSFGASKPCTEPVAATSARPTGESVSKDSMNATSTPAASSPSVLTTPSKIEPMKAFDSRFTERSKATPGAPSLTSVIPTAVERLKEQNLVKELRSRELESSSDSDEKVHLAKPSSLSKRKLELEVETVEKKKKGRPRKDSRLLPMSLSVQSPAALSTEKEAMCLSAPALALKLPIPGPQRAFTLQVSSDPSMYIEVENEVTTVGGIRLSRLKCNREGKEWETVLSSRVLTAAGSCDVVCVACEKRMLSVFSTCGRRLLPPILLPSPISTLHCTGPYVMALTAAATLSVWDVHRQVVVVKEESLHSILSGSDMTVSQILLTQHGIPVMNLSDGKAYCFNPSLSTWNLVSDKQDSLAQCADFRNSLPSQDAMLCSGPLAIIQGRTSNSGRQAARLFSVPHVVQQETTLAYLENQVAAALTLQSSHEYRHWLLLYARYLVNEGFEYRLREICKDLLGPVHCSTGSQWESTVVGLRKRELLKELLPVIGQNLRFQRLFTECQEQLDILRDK

Legend:
[1] = molecular target: HIRA (histone chaperone), human (human (endogenous in HSC-4)) (UniProt P54198); experiment: far-Western, overlay or dot blot; RIPA lysates of oral cancer cell lines resolved by 10% SDS-PAGE, transferred to nitrocellulose; biotin-tagged peptide (2 uM) used instead of primary antibody, detected with streptavidin-HRP and ECL; only the binder purified
[2] = molecular target: HIRA (histone chaperone), mouse (mouse (endogenous in W9.5 ES cells)) (UniProt Q61666); experiment: flow cytometry on cells; live cells resuspended in 75 ul PBS containing TM2-FITC for one hour, diluted with 200 ul PBS, analysed or sorted at once on FACS Aria II; no permeabilisation; Hira-/- ES cells as control; only the binder purified
[3] = molecular target: HIRA (histone chaperone), human (human (endogenous in HSC-4)) (UniProt P54198); experiment: as above
[4] = molecular target: HIRA (histone chaperone), mouse (mouse (endogenous in W9.5 ES cells)) (UniProt Q61666); experiment: fluorescence microscopy of live cells; live cells grown in confocal dishes, stained with TM2-FITC diluted in PBS, briefly washed and imaged; wild type against Hira-/- ES cells; only the binder purified

| Binder | binding [1] | binding [2] | binding [3] | binding [4] |
| --- | --- | --- | --- | --- |
| PKKGSKKAVTKAQKKDGA (C-terminal amide; biotin (site not stated)) [biotin-tagged TM2 peptide] | binds |  |  |  |
| PKKGSKKAVTKAQKKDGA (C-terminal amide; FITC (site not stated)) [TM2-FITC] |  | binds | binds | binds |
